# Data: PubChem BioAssay (Tox21)
# The chains behind the UniProt entries cited, without tags or fusion partners. Where a name states a change or a piece, a line headed by the entry shows the natural chain unless it says otherwise.
# UniProt P28223, whole entry, looked up: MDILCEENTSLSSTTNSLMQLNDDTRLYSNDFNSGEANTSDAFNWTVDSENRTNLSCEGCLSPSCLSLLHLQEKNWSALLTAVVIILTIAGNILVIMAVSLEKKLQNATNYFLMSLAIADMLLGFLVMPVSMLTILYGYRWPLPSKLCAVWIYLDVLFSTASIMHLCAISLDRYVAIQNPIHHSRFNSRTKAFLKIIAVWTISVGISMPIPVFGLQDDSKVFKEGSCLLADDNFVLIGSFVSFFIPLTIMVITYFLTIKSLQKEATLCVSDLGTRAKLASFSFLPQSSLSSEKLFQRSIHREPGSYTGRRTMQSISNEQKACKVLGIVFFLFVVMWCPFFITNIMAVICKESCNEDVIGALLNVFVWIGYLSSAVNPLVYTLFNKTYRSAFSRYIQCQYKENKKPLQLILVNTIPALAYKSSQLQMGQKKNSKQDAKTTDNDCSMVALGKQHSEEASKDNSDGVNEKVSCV
# UniProt P14416, whole entry, looked up: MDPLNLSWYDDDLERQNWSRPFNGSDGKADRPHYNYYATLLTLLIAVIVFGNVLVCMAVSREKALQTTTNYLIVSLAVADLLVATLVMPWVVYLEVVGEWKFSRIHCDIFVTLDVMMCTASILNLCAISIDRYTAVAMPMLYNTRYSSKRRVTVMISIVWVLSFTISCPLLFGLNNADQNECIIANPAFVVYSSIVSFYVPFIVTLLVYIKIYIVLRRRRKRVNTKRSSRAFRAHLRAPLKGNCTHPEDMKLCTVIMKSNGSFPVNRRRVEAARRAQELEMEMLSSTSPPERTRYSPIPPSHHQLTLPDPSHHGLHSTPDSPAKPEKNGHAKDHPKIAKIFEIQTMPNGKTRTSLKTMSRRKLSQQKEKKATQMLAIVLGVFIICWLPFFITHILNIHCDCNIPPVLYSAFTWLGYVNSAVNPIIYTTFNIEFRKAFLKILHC
# UniProt P11229: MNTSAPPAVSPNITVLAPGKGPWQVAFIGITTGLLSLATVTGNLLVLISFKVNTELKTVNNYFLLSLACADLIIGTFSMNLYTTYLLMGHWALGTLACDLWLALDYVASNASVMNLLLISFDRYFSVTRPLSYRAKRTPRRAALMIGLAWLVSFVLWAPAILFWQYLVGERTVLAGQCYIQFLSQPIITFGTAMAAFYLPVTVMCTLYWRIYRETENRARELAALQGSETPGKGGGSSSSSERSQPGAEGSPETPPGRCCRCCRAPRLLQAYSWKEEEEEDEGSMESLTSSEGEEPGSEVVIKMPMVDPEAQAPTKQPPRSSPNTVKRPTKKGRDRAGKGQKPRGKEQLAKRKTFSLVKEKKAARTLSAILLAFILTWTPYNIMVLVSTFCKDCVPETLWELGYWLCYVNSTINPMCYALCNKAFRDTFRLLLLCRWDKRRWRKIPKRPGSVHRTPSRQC
# Several values for one entry are separate records, joined by “and”; a condition that tells them apart may be missing. Identical values can stand only once. This list was built around the results that the source calls inconclusive (neither active nor inactive); the mix of calls is not that of the screen. For some of these results: Potencies beside an inconclusive call are fits to weak or partial responses and may not hold up. The source holds several records for some structures; these can differ, active in one and inactive in another. Activity calls are given as the source filed them. Unless noted, calls come from the whole dose curve.
# Experiments:
# [1] = Nuclear factor erythroid 2-related factor 2/antioxidant responsive element (Nrf2/ARE) small molecule agonists: luciferase reporter gene qHTS assay in human keratinocytes (AID 1919969); conditions: KeratinoSens HaCaT ARE-luciferase, luminescence, 24 h; activity, positive = activation: at 92.4 µM (top of the series); note: nearly all actives have a fitted effect of over 35% in size; note: potency is the fitted concentration of half-maximal effect; for activity, positive = activation: % is set by controls: 0 for no effect and ±100 for the full control effect
# [2] = p53 small molecule agonists, cell-based qHTS assay with human liver microsomes: qHTS cell viability counter screen (AID 1963579); note: nearly all actives have a fitted effect of over 45% in size; note: potency is the fitted concentration of half-maximal effect
# Procedure, shortened: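 Cells carrying the p53 response-element beta-lactamase reporter are treated for 16 h at 37 C with test compounds in the presence of human liver microsomes and NADPH (both 0.5 mg/mL final); ATP-based CellTiter-Glo luminescence then reports viability.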
# [3] = molecular target: Beta-2 adrenergic receptor (Homo sapiens) (UniProt P07550); experiment: Adrenergic beta2 receptor (ADRB2) small molecule agonists, cell-based qHTS assay (AID 1963593); conditions: CHO-ADRB2 cells, cAMP HTRF, 30 min; note: potency is the fitted concentration of half-maximal effect;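 for activation: CHO cells stably overexpressing human ADRB2; % is set by controls: 0 for no effect and ±100 for the full control effect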
# Procedure, shortened: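 CHO cells stably over-expressing ADRB2 were plated overnight at 37C, then dosed with compounds plus a stimulation mix containing 100uM IBMX and 25uM Ro-20-1724 for 0.5hr at room temperature. cAMP was measured by HTRF competition, 1hr.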
# [4] = molecular target: 5-hydroxytryptamine receptor 2A (Homo sapiens) (UniProt P28223); experiment: 5-hydroxytryptamine receptor 2A (HTR2A) small molecule agonists, cell-based qHTS assay (AID 1963587); note: potency is the fitted concentration of half-maximal effect; nearly all actives have a fitted effect of over 30% in size
# Procedure, shortened: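 Kinetic calcium-flux fluorescence (2 min, 1 sec intervals) after compound addition in agonist mode. HTR2A-CHO cells were cultured 18 h, then dye-loaded 1 h at 37 C.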
# [5] = cAMP Responsive Elements (CRE) small molecule agonists, cell-based qHTS assay (AID 1963590); conditions: CRE-bla HEK293T, beta-lactamase FRET ratio, 3 h; activation: at 92.4 µM (top of the series) unless noted; note: potency is the fitted concentration of half-maximal effect
# Procedure, shortened: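 CRE-bla HEK 293T cells in DMEM with 10% dialyzed FBS, NEAA, pyruvate and 25 mM HEPES were plated 18 h at 37 C/5% CO2, then exposed to compounds in DMSO for 3 h before LiveBLAzer B/G FRET substrate addition.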
# [6] = cAMP Responsive Elements (CRE) small molecule antagonists, cell-based qHTS assay (AID 1963591; active = well fitted inhibition curve with a large enough effect in the signal ratio in the repeat runs, not every such curve was filed as active; inconclusive = weak or mixed curves, or effect the other way; the % refers to the signal ratio; note: potency is the fitted concentration of half-maximal effect; for activity change, negative = inhibition: % is set by controls: 0 for no effect and ±100 for the full control effect); conditions: CRE-bla HEK293T, beta-lactamase FRET ratio; activity change, negative = inhibition: at 92.4 µM (top of the series) unless noted
# Procedure, shortened: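 CRE-bla HEK293T cells were plated 18 h at 37 °C/5% CO2, pinned with compound in DMSO, then stimulated with NKH477 at 0.25 uM final for 3 h. LiveBLAzer B/G FRET substrate was added and plates incubated 2 h at room temperature.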
# [7] = molecular target: D(2) dopamine receptor (Homo sapiens) (UniProt P14416); experiment: Dopamine D2 receptor (DRD2) small molecule agonists, cell-based qHTS assay (AID 1963594); conditions: HEK293-DRD2 cAMP HTRF, agonist mode, 30 min; activation: at 92.4 µM (top of the series) unless noted; note: % is set by controls: 0 for no effect and ±100 for the full control effect; nearly all actives have a fitted effect of over 35% in size
# Procedure, shortened: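 cAMP accumulation in DRD2-HEK293 cells measured by HTRF after 1 h detection; compounds added 10 min before NKH477 (200nM […]) forskolin-analogue stimulation, 30 min at room temperature, with Ro20-1724 present at 0.1 mM final.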
# [8] = p53 small molecule agonists, cell-based qHTS assay (AID 1963582; active = well fitted activation curve with a large enough effect in the signal ratio in the repeat runs, not every such curve was filed as active; inconclusive = weak or mixed curves; the % refers to the signal ratio; note: potency is the fitted concentration of half-maximal effect); conditions: HCT-116 p53RE-bla reporter, beta-lactamase FRET ratio, 16 h; activation: at 66 µM (top of the series) unless noted
# Procedure, shortened: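 p53RE-bla beta-lactamase reporter cells rested 5 h at 37 C/5% CO2, then received compounds in DMSO by pin transfer and were incubated 16 h at 37 C. LiveBLAzer B/G FRET substrate was loaded for 2 h at room temperature before fluorescence reading.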
# [9] = molecular target: 5-hydroxytryptamine receptor 2A (Homo sapiens) (UniProt P28223); experiment: 5-hydroxytryptamine receptor 2A (HTR2A) small molecule antagonists, cell-based qHTS assay (AID 1963586); note: nearly all actives have a fitted effect of over 45% in size; note: potency is the fitted concentration of half-maximal effect
# Procedure, shortened: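 Antagonist-mode intracellular calcium assay: DOI (4 nM) added after 5 min compound pre-incubation at room temperature to dye-loaded HTR2A-CHO cells. Fluorescence followed for 3 min, sampled every second.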
# [10] = molecular target: Beta-2 adrenergic receptor (Homo sapiens) (UniProt P07550); experiment: Adrenergic beta2 receptor (ADRB2) small molecule antagonists, cell-based qHTS assay (AID 1963592); conditions: CHO-ADRB2 cells, isoproterenol-stimulated cAMP HTRF ratio, 0.5 h; activity change, negative = inhibition: at 92.4 µM (top of the series) unless noted; note: nearly all actives have a fitted effect of over 50% in size; note: potency is the fitted concentration of half-maximal effect
# Procedure, shortened: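 Cells (CHO, stable ADRB2 overexpression) incubated 18-20hr at 37C; compounds added from DMSO; agonist mix (1nM isoproterenol, 100uM IBMX, 25uM Ro-20-1724) added; 0.5hr RT; d2-cAMP and anti-cAMP-cryptate added; 1hr RT; 665/615 nm read.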
# [11] = molecular target: Muscarinic acetylcholine receptor M1 (Homo sapiens) (UniProt P11229); experiment: Cholinergic receptor muscarinic 1 (CHRM1) small molecule antagonists, cell-based qHTS assay (AID 1963588); note: nearly all actives have a fitted effect of over 40% in size; note: potency is the fitted concentration of half-maximal effect
# Procedure, shortened: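 CHRM1-CHO calcium-flux assay, antagonist mode. Cells were seeded 18 h, dye-loaded 1 h at 37 C and given compound for 5 min at RT, then acetylcholine was added at 50nM. FDSS fluorescence was read 3 min; 15 concentrations, three runs.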
# [12] = molecular target: D(2) dopamine receptor (Homo sapiens) (UniProt P14416); experiment: Dopamine D2 receptor (DRD2) small molecule antagonists, cell-based qHTS assay (AID 1963595; active = well fitted inhibition curve with a large enough effect in the signal ratio in the repeat runs, with a control signal flat; inconclusive = weak or mixed curves, or effect the other way; the % refers to the signal ratio; note: % is set by controls: 0 for no effect and ±100 for the full control effect); conditions: HEK293-DRD2 cAMP HTRF antagonist mode; activity change, negative = inhibition: at 92.4 µM (top of the series) unless noted
# Procedure, shortened: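 Cells were plated and grown for 24 h at 37 °C. Ro20-1724 (0.1 mM final) went in first, then compound for 10 min. NKH477 (200 nM) with quinpirole (12 nM) followed for 30 min at RT, then HTRF detection reagents for 1 h.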
# [13] = activation: at 92.4 µM (top of the series) unless noted
smiles,measurement,setting,value
Cl/C(=C\n1cncn1)c1ccc(Cl)cc1Cl,Potency,[1],inactive
same,Potency,[2],inactive
same,Potency,[3]; [13],inactive
Cc1ccc(O)c(-n2nc3ccccc3n2)c1,Potency,[1],active: 60.6 µM and active: 27.3 µM and active: 5.96 µM
same,Potency,[2],active: 50.9 µM
same,Potency,[4],"inconclusive: 26.8 µM [activator, partial curve, poor fit]"
same,Potency,[5],"inconclusive: 54 µM [fluorescent, partial curve] and inconclusive: 68.6 µM"
same,Potency,[6],inconclusive: 68 µM [single point]
same,activation,[3]; at 42.5 µM (top of the series),inconclusive: 1.91%
same,activation,[3]; at 92.4 µM (top of the series),inconclusive: 12.9% and inactive: 3.48%
CCCCCCCC/C=C/CCCOC(C)=O,Potency,[1],"inconclusive: 68.6 µM [activator, single point]"
same,Potency,[2],"inconclusive: 45.8 µM [cytotoxic, single point]"
same,Potency,[6],inactive
same,Potency,[3]; [13],"inconclusive: 193 nM [inhibitor, single point]"
same,Potency,[7],inactive
CN1[C@@H]2CC[C@H]1CC(OC(=O)C(O)c1ccccc1)C2 (stereo partly drawn),Potency,[1],inactive
same,Potency,[2],"inconclusive: 0.199 µM [cytotoxic, single point]"
same,Potency,[3]; [13],inactive
C=C(C)C(=O)OCC(O)COc1ccc(C(C)(C)c2ccc(OCC(O)COC(=O)C(=C)C)cc2)cc1 (stereo not drawn),Potency,[1],"inconclusive: 27.3 µM [activator, single point]"
same,Potency,[2],"inconclusive: 51.3 µM [cytotoxic, partial curve, poor fit]"
same,Potency,[8],"inconclusive: 18.2 µM [rising, single point]"
same,Potency,[9],"inconclusive: 4.21 µM [inhibitor, full curve]"
same,Potency,[5],"inconclusive: 61.1 µM [rising, partial curve]"
same,Potency,[6],"inconclusive: 68.6 µM [rising, single point]"
same,"activity change, negative = inhibition",[10],inconclusive: -22.4%
same,Potency,[3]; [13],"inconclusive: 61100 nM [inhibitor, partial curve]"
same,Potency,[7],inactive
C/C=C\C/C=C/CCCCCCCCOC(C)=O,Potency,[1],active: 68.6 µM
same,Potency,[2],"inconclusive: 51.3 µM [cytotoxic, single point]"
same,Potency,[8],"inconclusive: 40.8 µM [rising, single point]"
same,Potency,[11],inactive
same,Potency,[6],"inconclusive: 61.1 µM [fluorescent, partial curve]"
C=CCOCC(O)CS(=O)(=O)O (stereo not drawn),Potency,[1],active: 0.196 µM
same,Potency,[2],inactive
same,Potency,[10],inactive
same,activation,[3]; [13],inconclusive: 28.2%
same,Potency,[12],inactive
CCCCOCCOCCOCCO,Potency,[1],"inconclusive: 76.1 µM [activator, single point]"
same,Potency,[2],"inconclusive: 26.3 µM [cytotoxic, single point]"
same,"activity change, negative = inhibition",[6],inconclusive: -11.8%
same,Potency,[3]; [13],"inconclusive: 27 µM [inhibitor, partial curve] and inactive"
COP(=O)(OC)OC(c1ccc(Cl)cc1)P(=O)(OC)OC (stereo not drawn),Potency,[1],"inconclusive: 33.5 µM [activator, partial curve, poor fit]"
same,Potency,[2],inactive
same,Potency,[5],inactive
same,Potency,[6],inactive
same,Potency,[3]; [13],"inconclusive: 3350 nM [inhibitor, single point]"
Nc1ccc(S(=O)(=O)c2ccc(N)cc2)cc1,Potency,[1],active: 27.3 µM
same,Potency,[2],inactive
same,Potency,[6],inactive
same,Potency,[3]; [13],inactive
Cc1nc2ccccc2n1Cc1ccc(Cl)cc1,Potency,[1],inactive
same,Potency,[2],"inconclusive: 2.23 µM [cytotoxic, single point]"
same,Potency,[8],"inconclusive: 8.9 µM [rising, partial curve, poor fit]"
same,Potency,[9],"inconclusive: 20.5 µM [inhibitor, single point]"
same,Potency,[5],inconclusive: 6.68 µM
same,Potency,[3]; [13],inactive
same,activation,[7],inconclusive: 37% [at 42.5 µM]
CC(C)(Cc1c[nH]c2ccccc12)NCC(O)COc1ccccc1C#N (stereo not drawn),Potency,[1],inactive
same,Potency,[2],"inconclusive: 22.3 µM [cytotoxic, single point]"
same,Potency,[9],"inconclusive: 13 µM [inhibitor, partial curve, poor fit]"
same,Potency,[10],active: 0.0067 µM
same,Potency,[3]; [13],"inconclusive: 18.8 nM [inhibitor, full curve]"
CCCCCC[C@@H](O)C/C=C\CCCCCCCC(=O)OC,Potency,[1],"inconclusive: 77.3 µM [activator, partial curve, poor fit]"
same,Potency,[2],"inconclusive: 46 µM [cytotoxic, single point]"
same,Potency,[9],inactive
same,Potency,[11],"inconclusive: 0.15 µM [inhibitor, single point]"
same,activation,[3]; [13],inconclusive: -0.481%
N#CCC(=O)O,Potency,[1],"inconclusive: 77 µM [activator, single point]"
same,Potency,[2],"inconclusive: 36.3 µM [cytotoxic, partial curve, poor fit]"
same,Potency,[5],inactive
same,"activity change, negative = inhibition",[6],inconclusive: -0.516%
same,activation,[3]; [13],inconclusive: 1.43%
same,activation,[3]; at 92.4 µM (top of the series),inactive: -1.95%
